From article PMC12557800
No constants are given. Whether binding was seen depends on the method and setting. Binding seen in cells or lysates may run through a third protein. A result given as binding can be weak or reduced; the word gives no strength. Tags and fused reporters may be left off the sequences shown.

Biological target: mouse SLC9C1 ΔExchanger-PA (lacking the exchanger domain) (mouse)
Assay: co-IP; HEK293T cell lysates coexpressing mouse TMEM217-3xFLAG and mouse SLC9C1-PA (full length or truncated); IP with anti-FLAG or anti-PA antibodies, immunoblot with FLAG and PA antibodies

B1: mouse TMEM217-3xFLAG expressed in HEK293T cells (protein, UniProt Q14AF1 1-189)
chain: MKHHSWCGLTARMGTVLSGVFSIMATHMHLIFERKHLGNGNCTENFQAQGLNILRYFFICWSFQIVLFTSIITMIASCFLLYSVYAQIYEGLMSYVIWIIIYESTSLTVQTLTDEFSVALVRAMRWFGWVSRASLHCFWLYFVVTHAQIIYQSKKQGNILTYHRRISLGSGDRPRRKSKIIHFVQHHSE
binding: binds
